Assay results taken from the supplement of paper PMC6445147.
Single values of this data set are uncertain.

B1: human tRNA-Pro; a variant is named by its letters at N, in order (parent)
chain: GGCTCGTTGGTCTAGNGGTATGATTCTCGCTTAGGGTGCGAGAGGTCCCGGGTTCNNATCCCGGACGAGCCC

Variants of: B1
Test: tRNA 3' processing efficiency (processed reads / all reads, maximum-likelihood estimate) (fraction); higher = more efficient 3' processing
Settings: HEK293T; construct: no Pol-II promoter ((-)CMV library)

| Variant | tRNA 3' processing efficiency |
| --- | --- |
| GGC T19A T59C | 0.4 |
| CCA T19C | 0.2 |
| AGA A14C T53G | 0.17 |
| GGC T11A | 0.5 |
| CCA A20T A58G | 0.4 |
| TAT G44T | 0.25 |
| AAT T19C T59A | 0.25 |
| ACA A14G G18T T19C A58G | 0.25 |
| AAT T8A A20T | 0.5 |
| TCA A14G G17T T59G | 0.2 |
| GGA G9T A20T T53A | 0.33 |
| GGA A14C G15C | 0.5 |
| GCC T8C G15A | 0.17 |
| GCA T8G A14C G18C | 0.57 |
| GGA G15T G17T T19G T53G | 0.14 |
| GGC G9T A20G A58T | 0.57 |
| CGA A14C C55T | 0.1 |
| CGA A14G G17C A20G T53G | 0.17 |
| GGA G17T T19A T54A | 0.73 |
| ACG A14G T19A | 0.4 |
| TAT T19C A20C | 0.5 |
| GAT T8G G9T G15C T54G A58C | 0.11 |
| GGA G36T C55T A58T | 0.29 |
| CGC A58T | 0.25 |

Two consecutive entries from above, for reference:

| Variant | tRNA 3' processing efficiency |
| --- | --- |
| GGC G9T A20G A58T | 0.57 |
| CGA A14C C55T | 0.1 |

(listing goes on)

| Variant | tRNA 3' processing efficiency |
| --- | --- |
| GCT A14C | 0.25 |
| TCA T19A A58C | 0.25 |
| GCC A14T T19G | 0.2 |
| GCC A14T T19A | 0.2 |
| GCA T19C A58G | 0.25 |
| GGA G34A A58G T59G | 0.4 |
| GGA A14G G17A A58G T59G | 0.33 |
| TCA A14T T59G | 0.62 |
| GGA T8C A33G A58T | 0.25 |
| GGA G9T A14G G18T | 0.25 |
| AAT T19G T59G | 0.5 |
| GCA G9T G15C T19C | 0.25 |
| GGA T19A A33G | 0.25 |
| TCC G15C | 0.2 |
| GGA A20T G38A T59C | 0.57 |
| AGC A14G G17T | 0.25 |
| TGA A14G A20T T53G C55T | 0.5 |
| CGA T8G T53A | 0.27 |
| GGA A20T T53A T59C | 0.42 |
| CCA A14T T59G | 0.2 |
| GGA T8G A14T T19G A58G T59C | 0.2 |
| GGA G9T A20G A58C T59A | 0.67 |
| CGA C55A T59A | 0.25 |
| GCA G15T G17T T19A T59C | 0.33 |

| Variant | tRNA 3' processing efficiency |
| --- | --- |
| GGA T8C T19A C55G | 0.25 |
| GAT G51T | 0.29 |
| GGA T8G G15T T59A | 0.67 |
| CAT T19G A58T | 0.4 |
| AGA G9A C55G | 0.24 |
| GGA T46C C55G | 0.09 |
| GGA A14G G18A T53G A58G | 0.25 |
| GGA A33G A58T T59A | 0.45 |
| GGA T19C T53C C55T | 0.44 |
| GGA G51A T54A | 0.38 |
| GCA G17A G18A A58G | 0.7 |
| GGA G15A A20G G50A T59A | 0.25 |
| GCA T8C G17T T19G | 0.62 |
| GGA T8C A58G T59C | 0.25 |
| GCT T19A A20T | 0.47 |
| GGA T19A T53A C55G | 0.2 |
| CGC A14C | 0.57 |
| ACA G9T T19G A58T T59C | 0.43 |
| GGC A14T A20T T53G | 0.33 |
| GCA A14G G17A G18C A20G T59G | 0.25 |
| GGA T8G G9A A58T | 0.25 |
| GGA T8A G18A G40A | 0.17 |
| CAT T8A G15A | 0.25 |
| GGA T19A G51A T59A | 0.5 |

A few values from the results shown:
AGA G9A C55G | tRNA 3' processing efficiency: 0.24
GGA T8G G9A A58T | tRNA 3' processing efficiency: 0.25
GGA G15A A20G G50A T59A | tRNA 3' processing efficiency: 0.25

A different layout for some results above:
Variant	tRNA 3' processing efficiency
CGA A14G G17C A20G T53G	0.17
GGA G17T T19A T54A	0.73
ACG A14G T19A	0.4

Later entries.

| Variant | tRNA 3' processing efficiency |
| --- | --- |
| AAT T19A A20C A58T | 0.33 |
| GGA A14C G15T T19A T59C | 0.4 |
| GCG T59C | 0.56 |
| GGA G18T T19C A58C | 0.25 |
| AAT T8G G9T | 0.55 |
| GGA A14T T19C T53G | 0.5 |
| AGA C55G T59C | 0.29 |
| GGA A14T A20T T54A | 0.25 |
| GGA T19C G50A | 0.69 |
| AGA G9A T19C T59A | 0.29 |
| GGA T8C A20T A58G | 0.17 |
| GGA T19A T53A T59G | 0.25 |
| GGA A14T T54A T59C | 0.25 |
| GGA G9T G17C G18T A58G | 0.5 |
| GAT G36A | 0.25 |
| GGA A14G T19G A58C | 0.25 |
| TGA T8C A14C A58T | 0.4 |
| GGA G18T A58T T59A | 0.14 |
| GGC A20G G40A | 0.43 |
| GGA G9A T19G A20C T53G | 0.25 |
| GCA G15A T19A A58T | 0.25 |
| GCA A14C T19A A20T | 0.17 |
| GGA A14C G15C T19A T53A | 0.06 |
| GCA G2A C3G T7G | 0.6 |

| Variant | tRNA 3' processing efficiency |
| --- | --- |
| AGA G17T A20C T59G | 0.2 |
| TGA T8C T19G | 0.17 |
| AGC T19C G40T T59G | 0.25 |
| GGA T8G G18A T53G | 0.7 |
| TGA G9T G18A T19A T53A | 0.17 |
| ACA T53C A58G T59C | 0.5 |
| GGA A14T G15T C55T | 0.17 |
| CAT T19C A20G A58G | 0.4 |
| GGA G50A T53A A58T T59A | 0.5 |
| GCT A14T T19A A20T | 0.4 |
| GGA T8C T53G T59G | 0.25 |
| CCA A14C G51A | 0.15 |
| CCG T8G | 0.57 |
| TGA G9A A58C | 0.29 |
| CGA G9A A14T C55T | 0.4 |
| GGA T19A C55T A58G T59A C62T | 0.5 |
| TGA T8G A33G C55T | 0.57 |
| CAT T8G A14C T59A | 0.5 |
| TGC A14G T53C | 0.5 |
| ACA A14C T19A | 0.39 |
| GGC G15T G17A A58T | 0.4 |
| CGA C55T A58G T59C | 0.2 |
| TCA T19G A41G T54A | 0.4 |
| GGC G2A A14T A58T | 0.8 |

| Variant | tRNA 3' processing efficiency |
| --- | --- |
| CGA A14C A20T G22A T53A | 0.33 |
| GGA T8C G9A A14T T59C | 0.14 |
| GCA A14G A20T A58G T59G | 0.73 |
| GAT G51A A58T | 0.43 |
| TCA A14C T19A | 0.25 |
| ACA A14T G17T A20G C55T | 0.57 |
| GGA G15C T53A T59G | 0.25 |
| CGA T53A C55T | 0.5 |
| GGA A14T T19C A58T | 0.25 |
| ACA A14T A20T A58T | 0.5 |
| GGA T8G G15T A20C T53G | 0.25 |
| TCA A14T A20G T59G | 0.43 |
| GGA T19C T53G A58T | 0.33 |
| GAT G45T T59C | 0.2 |
| GCA A14C T19A | 0.29 |
| AGA A14C T19A T59A | 0.25 |
| GGA G18A T19C T59C | 0.25 |
| CAT T59C C70T | 0.4 |
| CCA T8C G15T T19G | 0.25 |
| GCA G9A A14C G17T C55A | 0.25 |
| AGA G17A T54A | 0.62 |
| GGA A14C A20G A58T | 0.25 |
| GCC T8G | 0.33 |
| TGA G9T C55T A58C | 0.4 |

| Variant | tRNA 3' processing efficiency |
| --- | --- |
| CGA G9T T54A A58G | 0.33 |
| CGA T8C C55T | 0.25 |
| GCA G15C G51A | 0.29 |
| GGC A14T T54A | 0.5 |
| GGA G9A T19A T53G | 0.4 |
| TAT G50C T59C | 0.43 |
| GCA T8A G15T G18A | 0.25 |
| GCA G15C T19A | 0.08 |
| AGA G9T A14C T19G A58G | 0.4 |
| GGA T8G A58G T59G | 0.4 |
| GCA A14T T19G A58G T59G | 0.25 |
| GCA T19A G51C | 0.25 |
| AGA A14T T54A A58T | 0.2 |
| GCA A14C T19G A41C A58T | 0.57 |
| GGC T19A G34A T53A | 0.57 |
| AGA C55T A58T | 0.57 |
| GGA T8C A14T T19G | 0.4 |
| TAT T8C T19A C55T | 0.4 |
| GGA T8G G17C G18A T53A | 0.58 |
| CGA G9A C55G | 0.33 |
| GGC T8G T53A A58G | 0.25 |
| GGA G51A T59C | 0.4 |

Variants of: B1
Test: tRNA 5' processing efficiency (processed reads / all reads, maximum-likelihood estimate) (fraction); higher = more efficient 5' processing
Settings: HEK293T; construct: CMV Pol-II promoter ((+)CMV library, decapped)

| Variant | tRNA 5' processing efficiency |
| --- | --- |
| AAT T19A A20C A58T | 0.2 |
| GCA G15C T19A | 0.25 |
